Reference: patent US20250236667A1, “ANTIBODIES TO MUTANT CALRETICULIN AND USES THEREOF” (CENTRAL ADELAIDE LOCAL HEALTH NETWORK INC, priority 2021, published 2025)
No constants are given. Whether binding was seen depends on the method and setting. Some entries that bind do so weakly or less than the wild type.

Key:
[1] = biological target: human CALR del61 frameshift mutant calreticulin (61 base pair deletion in CALR exon 9) (human) (UniProt P27797); experiment: flow cytometry, PE-conjugated 4D7 on TF-1 TpoR CALRdel61 cells
[2] = biological target: human CALR del61 frameshift mutant calreticulin (61 base pair deletion in CALR exon 9) (human) (UniProt P27797); experiment: Western blot of cell extracts
[3] = biological target: human CALR del61 frameshift mutant calreticulin (61 base pair deletion in CALR exon 9) (human) (UniProt P27797); experiment: Western blot of TF-1 cell extracts (hybridoma clone screen)
[4] = biological target: human CALR del61 frameshift mutant calreticulin (61 base pair deletion in CALR exon 9) (human) (UniProt P27797); experiment: flow cytometry, PE-conjugated 4D7 at 4 µg/mL on TF-1 TpoR CALRdel61 cells
[5] = biological target: human CALR del61 frameshift mutant calreticulin (61 base pair deletion in CALR exon 9) (human) (UniProt P27797); experiment: hybridoma screen (Western blot, FIG. 6A)
[6] = biological target: human CALR del61 frameshift mutant calreticulin (61 base pair deletion in CALR exon 9) (human) (UniProt P27797); experiment: flow cytometry on TF-1 TpoR CALR^del61 cells

Measured: binding

B1: 4D7 rat monoclonal IgG2a anti-mutant calreticulin antibody (antibody, V domains shown)
VH: QVQLQQSGAELAKPGSSVKISCKASGYTFTNYDMSWIKQRPGQALEWIGAINPGNGVTDYNEKFRGKATLTVDKSSSTAFMQLSSLTPEDTAVYHCAREYRDNYGYFDYWGQGVMVTVSS
VL: DIVLTQTPVSLSVTLGDQASISCRSSQSLEYSDGYTYLDWFLQKPGQSPQLLIYEVSSRFSGVPDRFIGRGSGTDFTLKISRVEPEDLGVYYCFQATHDPFTFGSGTKLEIK
notes: also called clone 4D7; clone 4D7 mAb
binds: all assays above
